# Experimental data: the supplement of paper PMC12819154, “High-throughput peptide-centric local stability assay extends protein–ligand identification to membrane proteins, tissues and bacteria” (Nature Structural & Molecular Biology, 2025)
# Protein sequences, listed by entry. Tags and fused reporters are not part of them. Lines headed by an entry give the natural chain unless they say otherwise; changes in a name come on top.
# UniProt O95336: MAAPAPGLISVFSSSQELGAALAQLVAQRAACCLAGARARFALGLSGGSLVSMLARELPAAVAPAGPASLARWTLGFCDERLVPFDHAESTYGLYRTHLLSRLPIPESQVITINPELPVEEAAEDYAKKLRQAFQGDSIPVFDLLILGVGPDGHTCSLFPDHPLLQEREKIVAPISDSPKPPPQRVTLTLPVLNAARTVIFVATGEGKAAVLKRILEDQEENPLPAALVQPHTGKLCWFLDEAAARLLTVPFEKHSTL
# UniProt O94903: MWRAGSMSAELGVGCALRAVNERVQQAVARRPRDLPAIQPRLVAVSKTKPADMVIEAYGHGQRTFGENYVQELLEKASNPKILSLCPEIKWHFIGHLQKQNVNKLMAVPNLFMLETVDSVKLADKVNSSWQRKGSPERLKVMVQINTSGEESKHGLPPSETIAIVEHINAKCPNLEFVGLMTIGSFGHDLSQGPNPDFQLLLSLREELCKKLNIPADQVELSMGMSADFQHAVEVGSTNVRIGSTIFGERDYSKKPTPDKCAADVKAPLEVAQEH
# UniProt O95872: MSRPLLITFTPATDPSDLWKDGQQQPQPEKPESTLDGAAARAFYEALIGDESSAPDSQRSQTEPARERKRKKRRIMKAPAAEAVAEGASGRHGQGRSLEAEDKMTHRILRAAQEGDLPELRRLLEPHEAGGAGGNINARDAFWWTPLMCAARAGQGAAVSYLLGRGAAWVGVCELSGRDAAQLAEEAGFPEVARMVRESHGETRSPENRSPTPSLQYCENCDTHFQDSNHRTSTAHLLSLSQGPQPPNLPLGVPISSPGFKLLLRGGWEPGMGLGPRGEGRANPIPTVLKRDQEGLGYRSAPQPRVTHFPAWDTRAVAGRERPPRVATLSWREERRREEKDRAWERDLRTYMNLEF
# UniProt O76075: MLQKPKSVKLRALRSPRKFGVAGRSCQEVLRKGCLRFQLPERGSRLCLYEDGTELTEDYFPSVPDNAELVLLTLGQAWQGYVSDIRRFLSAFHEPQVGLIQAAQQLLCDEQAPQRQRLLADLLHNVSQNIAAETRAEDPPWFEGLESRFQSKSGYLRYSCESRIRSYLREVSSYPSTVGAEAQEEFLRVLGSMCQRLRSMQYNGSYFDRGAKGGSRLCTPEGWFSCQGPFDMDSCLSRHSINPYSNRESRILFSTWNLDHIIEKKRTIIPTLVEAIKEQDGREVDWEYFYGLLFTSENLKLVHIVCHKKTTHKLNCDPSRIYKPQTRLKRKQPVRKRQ
# UniProt O94830: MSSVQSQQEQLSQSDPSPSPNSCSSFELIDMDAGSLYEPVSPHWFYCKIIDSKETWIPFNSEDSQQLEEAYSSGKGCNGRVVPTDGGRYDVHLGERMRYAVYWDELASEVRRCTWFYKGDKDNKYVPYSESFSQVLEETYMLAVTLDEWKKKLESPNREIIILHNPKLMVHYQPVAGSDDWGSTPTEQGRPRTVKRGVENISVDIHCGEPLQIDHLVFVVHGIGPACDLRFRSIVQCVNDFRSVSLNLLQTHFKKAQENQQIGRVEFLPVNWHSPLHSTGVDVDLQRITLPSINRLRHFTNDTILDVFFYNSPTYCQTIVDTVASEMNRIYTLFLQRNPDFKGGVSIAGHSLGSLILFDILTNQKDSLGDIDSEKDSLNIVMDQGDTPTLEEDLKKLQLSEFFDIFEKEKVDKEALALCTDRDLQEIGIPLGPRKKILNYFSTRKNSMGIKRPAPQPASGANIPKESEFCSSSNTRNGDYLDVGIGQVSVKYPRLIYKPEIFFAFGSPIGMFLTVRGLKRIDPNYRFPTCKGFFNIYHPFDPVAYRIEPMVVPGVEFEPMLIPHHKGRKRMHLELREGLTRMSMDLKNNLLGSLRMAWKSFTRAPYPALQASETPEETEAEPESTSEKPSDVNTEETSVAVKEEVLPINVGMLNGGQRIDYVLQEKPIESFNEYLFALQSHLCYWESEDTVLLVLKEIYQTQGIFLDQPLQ
# UniProt O96019, whole entry: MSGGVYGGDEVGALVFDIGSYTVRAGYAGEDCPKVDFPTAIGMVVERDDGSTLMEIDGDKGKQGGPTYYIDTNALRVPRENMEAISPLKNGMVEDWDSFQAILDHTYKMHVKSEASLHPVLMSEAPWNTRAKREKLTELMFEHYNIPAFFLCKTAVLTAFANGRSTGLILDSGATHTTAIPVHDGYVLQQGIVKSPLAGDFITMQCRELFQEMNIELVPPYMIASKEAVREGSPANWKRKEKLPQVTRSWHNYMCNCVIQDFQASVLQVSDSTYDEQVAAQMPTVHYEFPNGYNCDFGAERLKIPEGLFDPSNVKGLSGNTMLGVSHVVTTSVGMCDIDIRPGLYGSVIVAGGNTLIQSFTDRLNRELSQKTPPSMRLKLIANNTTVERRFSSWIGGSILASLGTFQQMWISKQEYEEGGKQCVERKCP
# UniProt O95881: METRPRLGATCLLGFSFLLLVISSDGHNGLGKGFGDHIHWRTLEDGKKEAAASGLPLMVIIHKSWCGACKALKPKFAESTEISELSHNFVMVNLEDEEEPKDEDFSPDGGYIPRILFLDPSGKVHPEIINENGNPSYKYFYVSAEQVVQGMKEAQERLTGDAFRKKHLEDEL
# UniProt O75420: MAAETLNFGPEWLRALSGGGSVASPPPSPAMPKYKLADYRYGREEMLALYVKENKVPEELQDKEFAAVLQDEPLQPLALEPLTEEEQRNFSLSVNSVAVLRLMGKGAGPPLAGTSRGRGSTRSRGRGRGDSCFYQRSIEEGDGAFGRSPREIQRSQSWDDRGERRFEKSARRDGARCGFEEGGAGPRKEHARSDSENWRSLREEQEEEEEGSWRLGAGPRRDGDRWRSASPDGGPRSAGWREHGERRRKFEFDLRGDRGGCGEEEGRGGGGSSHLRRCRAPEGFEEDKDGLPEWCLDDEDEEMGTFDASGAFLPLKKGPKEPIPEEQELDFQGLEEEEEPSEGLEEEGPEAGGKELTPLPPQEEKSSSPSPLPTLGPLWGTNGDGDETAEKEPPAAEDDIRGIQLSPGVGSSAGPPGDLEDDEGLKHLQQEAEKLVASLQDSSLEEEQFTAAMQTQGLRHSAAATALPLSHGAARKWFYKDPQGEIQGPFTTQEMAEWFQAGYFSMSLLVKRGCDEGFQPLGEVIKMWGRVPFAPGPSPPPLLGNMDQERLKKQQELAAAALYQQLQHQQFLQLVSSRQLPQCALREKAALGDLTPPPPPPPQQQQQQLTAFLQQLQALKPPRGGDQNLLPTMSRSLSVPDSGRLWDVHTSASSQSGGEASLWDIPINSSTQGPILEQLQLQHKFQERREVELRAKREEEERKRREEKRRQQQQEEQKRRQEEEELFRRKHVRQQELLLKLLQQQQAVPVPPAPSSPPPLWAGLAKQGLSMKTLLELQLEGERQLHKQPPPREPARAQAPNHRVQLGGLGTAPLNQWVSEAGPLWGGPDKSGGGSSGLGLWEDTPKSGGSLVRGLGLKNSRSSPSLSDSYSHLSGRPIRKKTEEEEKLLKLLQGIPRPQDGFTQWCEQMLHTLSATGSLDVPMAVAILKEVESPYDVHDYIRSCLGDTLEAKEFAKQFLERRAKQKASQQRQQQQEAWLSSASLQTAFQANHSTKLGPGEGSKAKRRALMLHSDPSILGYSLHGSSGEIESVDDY
# UniProt O96018: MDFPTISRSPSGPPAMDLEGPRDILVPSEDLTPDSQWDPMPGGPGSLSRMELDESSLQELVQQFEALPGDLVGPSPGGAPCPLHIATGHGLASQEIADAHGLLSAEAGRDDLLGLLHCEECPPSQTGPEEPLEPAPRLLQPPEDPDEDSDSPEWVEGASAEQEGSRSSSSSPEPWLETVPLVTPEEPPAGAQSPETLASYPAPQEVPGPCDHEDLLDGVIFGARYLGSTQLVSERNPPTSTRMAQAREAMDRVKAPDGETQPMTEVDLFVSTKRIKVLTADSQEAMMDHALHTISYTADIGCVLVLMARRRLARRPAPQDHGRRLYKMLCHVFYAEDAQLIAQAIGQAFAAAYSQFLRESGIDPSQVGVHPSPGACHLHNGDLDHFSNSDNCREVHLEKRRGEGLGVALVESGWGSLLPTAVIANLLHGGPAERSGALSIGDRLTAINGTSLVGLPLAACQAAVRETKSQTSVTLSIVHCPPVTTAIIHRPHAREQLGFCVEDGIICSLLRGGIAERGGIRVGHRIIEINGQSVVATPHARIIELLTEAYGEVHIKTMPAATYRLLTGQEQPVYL
# UniProt O95267: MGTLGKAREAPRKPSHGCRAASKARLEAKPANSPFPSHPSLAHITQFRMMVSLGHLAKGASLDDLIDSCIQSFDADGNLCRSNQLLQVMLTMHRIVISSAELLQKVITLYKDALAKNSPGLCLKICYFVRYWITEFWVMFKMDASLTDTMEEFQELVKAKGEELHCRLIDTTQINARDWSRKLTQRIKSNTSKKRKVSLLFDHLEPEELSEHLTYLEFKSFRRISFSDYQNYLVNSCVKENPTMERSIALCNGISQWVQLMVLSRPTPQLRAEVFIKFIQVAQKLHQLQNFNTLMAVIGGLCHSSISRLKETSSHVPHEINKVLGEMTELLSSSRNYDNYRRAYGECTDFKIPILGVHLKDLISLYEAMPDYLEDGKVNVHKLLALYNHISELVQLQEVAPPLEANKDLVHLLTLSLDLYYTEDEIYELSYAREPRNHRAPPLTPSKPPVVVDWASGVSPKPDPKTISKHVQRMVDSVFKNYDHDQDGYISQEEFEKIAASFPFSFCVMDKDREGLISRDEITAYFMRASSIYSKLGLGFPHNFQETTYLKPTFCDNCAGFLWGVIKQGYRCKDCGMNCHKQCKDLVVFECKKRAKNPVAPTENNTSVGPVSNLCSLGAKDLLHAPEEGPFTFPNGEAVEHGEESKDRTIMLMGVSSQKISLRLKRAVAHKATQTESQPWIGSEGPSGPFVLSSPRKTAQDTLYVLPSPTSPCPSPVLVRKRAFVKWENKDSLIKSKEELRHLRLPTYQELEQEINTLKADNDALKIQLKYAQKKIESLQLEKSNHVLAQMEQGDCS
# UniProt O75396: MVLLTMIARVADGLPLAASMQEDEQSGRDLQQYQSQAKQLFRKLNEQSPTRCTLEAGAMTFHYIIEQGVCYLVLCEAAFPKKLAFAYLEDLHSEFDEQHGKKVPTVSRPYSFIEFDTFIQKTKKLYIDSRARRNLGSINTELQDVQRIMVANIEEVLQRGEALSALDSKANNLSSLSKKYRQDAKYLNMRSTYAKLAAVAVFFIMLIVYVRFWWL
# UniProt O95900: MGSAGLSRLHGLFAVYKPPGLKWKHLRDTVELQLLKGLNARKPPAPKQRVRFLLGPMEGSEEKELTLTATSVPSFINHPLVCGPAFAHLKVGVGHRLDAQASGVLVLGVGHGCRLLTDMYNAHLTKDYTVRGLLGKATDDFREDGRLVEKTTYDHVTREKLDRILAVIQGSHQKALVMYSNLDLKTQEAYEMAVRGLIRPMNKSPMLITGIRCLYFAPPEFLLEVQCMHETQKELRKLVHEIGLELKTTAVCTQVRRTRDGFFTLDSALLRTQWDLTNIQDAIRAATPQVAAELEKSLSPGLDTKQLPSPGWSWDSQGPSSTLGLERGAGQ
# UniProt O95218: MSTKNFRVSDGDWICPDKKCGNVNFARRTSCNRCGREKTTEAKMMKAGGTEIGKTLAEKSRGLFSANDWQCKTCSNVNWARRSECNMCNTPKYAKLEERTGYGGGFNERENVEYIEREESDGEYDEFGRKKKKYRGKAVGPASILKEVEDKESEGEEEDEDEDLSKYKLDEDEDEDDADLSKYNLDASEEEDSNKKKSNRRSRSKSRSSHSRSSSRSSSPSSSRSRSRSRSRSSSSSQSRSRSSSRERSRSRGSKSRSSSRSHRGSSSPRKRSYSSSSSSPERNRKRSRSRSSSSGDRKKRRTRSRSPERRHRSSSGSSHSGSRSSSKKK
# UniProt O75864: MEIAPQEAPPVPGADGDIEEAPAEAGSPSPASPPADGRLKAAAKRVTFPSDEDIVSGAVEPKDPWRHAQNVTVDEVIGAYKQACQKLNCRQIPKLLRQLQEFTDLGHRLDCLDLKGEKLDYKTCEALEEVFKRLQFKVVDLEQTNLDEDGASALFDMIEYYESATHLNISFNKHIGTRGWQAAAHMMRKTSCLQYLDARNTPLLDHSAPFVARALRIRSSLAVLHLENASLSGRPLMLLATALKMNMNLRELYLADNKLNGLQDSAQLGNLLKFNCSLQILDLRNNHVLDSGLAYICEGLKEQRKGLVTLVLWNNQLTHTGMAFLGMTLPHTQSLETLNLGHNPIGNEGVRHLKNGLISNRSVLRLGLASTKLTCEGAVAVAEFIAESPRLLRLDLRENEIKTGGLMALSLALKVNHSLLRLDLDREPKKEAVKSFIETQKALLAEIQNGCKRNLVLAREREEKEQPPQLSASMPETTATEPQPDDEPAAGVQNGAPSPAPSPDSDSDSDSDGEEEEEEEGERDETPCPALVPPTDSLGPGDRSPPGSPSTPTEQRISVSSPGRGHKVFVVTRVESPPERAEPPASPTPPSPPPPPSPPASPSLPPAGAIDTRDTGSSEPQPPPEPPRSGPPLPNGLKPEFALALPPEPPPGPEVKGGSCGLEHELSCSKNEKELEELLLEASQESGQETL
# This is one part of the list. Small differences around the control level are noise.
# Compound: CN[C@@H]1C[C@H]2O[C@@](C)([C@@H]1OC)n1c3ccccc3c3c4c(c5c6ccccc6n2c5c31)C(=O)NC4 [staurosporine]
# Assay: log2 fold change of tryptic peptide abundance, ligand vs vehicle (limited proteolysis) (log2 ratio); higher = more trypsin-susceptible (destabilized)
# Conditions: ligand concentration: 20 uM; sample: K562 cleared lysate; digestion: 4 min, 22 C (HT-PELSA RT4min, Orbitrap Astral)
row,Target,log2 fold change
1,"USP1 (peptide sequence: PGVIPSESNGLSR, peptide start residue: 2) (UniProt O94782)",0.163
2,"PGLS (peptide sequence: LLTVPFEK, peptide start residue: 247) (UniProt O95336)",0.206
3,"UniProt O94903 (peptide sequence: IGSTIFGERDYSK, peptide start residue: 242)",0.18
4,"ARIH2 (peptide sequence: ESEGALNEHMTSLASVLK, peptide start residue: 68) (UniProt O95376)",0.125
5,"RHOBTB3 (peptide sequence: YNVNDKFSFHEVK, peptide start residue: 100) (UniProt O94955)",0.569
6,"PSMD10 (peptide sequence: LLVSQGASIYIENKEEK, peptide start residue: 190) (UniProt O75832)",-0.28
7,"KLHL18 (peptide sequence: DLVDEAKDYHLMPER, peptide start residue: 255) (UniProt O94889)",0.328
8,"UniProt O95872 (peptide sequence: ANPIPTVLKR, peptide start residue: 282)",0.151
9,"EIF3G (peptide sequence: IVSCRICK, peptide start residue: 154) (UniProt O75821)",0.674
10,"DFFB (peptide sequence: VLGSMCQR, peptide start residue: 189) (UniProt O76075)",-0.181
11,"DDHD2 (peptide sequence: DLQEIGIPLGPR, peptide start residue: 423) (UniProt O94830)",-0.321
12,"BRI3 (peptide sequence: VYNIHSR, peptide start residue: 56) (UniProt O95415)",-0.284
13,"ACTL6A (peptide sequence: ENMEAISPLK, peptide start residue: 80) (UniProt O96019)",0.387
14,"ASMTL (peptide sequence: VSEFYEETK, peptide start residue: 141) (UniProt O95671)",-0.661
15,"UniProt O94927 (peptide sequence: ELGCWAVEEMGVPVAAR, peptide start residue: 9)",0.315
16,"UBXN7 (peptide sequence: EENRRPLTEPPVR, peptide start residue: 360) (UniProt O94888)",-0.865
17,"TXNDC12 (peptide sequence: VHPEIINENGNPSYK, peptide start residue: 124) (UniProt O95881)",0.349
18,"GIGYF1 (peptide sequence: SDSENWR, peptide start residue: 193) (UniProt O75420)",0.226

# No new results follow: an excerpt of the list.
row,Target,log2 fold change
13,"ACTL6A (peptide sequence: ENMEAISPLK, peptide start residue: 80) (UniProt O96019)",0.387
14,"ASMTL (peptide sequence: VSEFYEETK, peptide start residue: 141) (UniProt O95671)",-0.661
15,"UniProt O94927 (peptide sequence: ELGCWAVEEMGVPVAAR, peptide start residue: 9)",0.315

# Further results follow:

row,Target,log2 fold change
1,"UniProt O95758 (peptide sequence: VKIMFNKK, peptide start residue: 388)",0.577
2,"APBA3 (peptide sequence: RPAPQDHGR, peptide start residue: 315) (UniProt O96018)",0.925
3,"CDC123 (peptide sequence: SVILPLPQNVK, peptide start residue: 25) (UniProt O75794)",0.195
4,"UniProt O95267 (peptide sequence: LIDTTQINAR, peptide start residue: 168)",0.0212
5,"TOX4 (peptide sequence: LSTTPSPTSSLHEDGVEDFRR, peptide start residue: 173) (UniProt O94842)",0.439
6,"UniProt O75396 (peptide sequence: KVPTVSRPYSFIEFDTFIQK, peptide start residue: 102)",0.2
7,"CNOT4 (peptide sequence: KALADLIEK, peptide start residue: 413) (UniProt O95628)",0.169
8,"MPZL1 (peptide sequence: KSPSDTEGLVK, peptide start residue: 218) (UniProt O95297)",0.171
9,"FLOT1 (peptide sequence: SQLIMQAEAEAASVR, peptide start residue: 303) (UniProt O75955)",-0.425
10,"TRUB2 (peptide sequence: SPMLITGIR, peptide start residue: 204) (UniProt O95900)",-0.445
11,"ZRANB2 (peptide sequence: RSECNMCNTPK, peptide start residue: 82) (UniProt O95218)",-0.19
12,"PPP1R37 (peptide sequence: ALLAEIQNGCK, peptide start residue: 442) (UniProt O75864)",-0.334
13,"STAM2 (peptide sequence: KSEPEPVYIDEDKMDR, peptide start residue: 284) (UniProt O75886)",0.312
14,"NDUFB4 (peptide sequence: TINVYPNFRPTPK, peptide start residue: 73) (UniProt O95168)",0.362
15,"CSDE1 (peptide sequence: VGDDVEFEVSSDRR, peptide start residue: 65) (UniProt O75534)",-0.189
16,"EIF3J (peptide sequence: RLEEPEEPKVLTPEEQLADK, peptide start residue: 98) (UniProt O75822)",0.993
17,"ZMPSTE24 (peptide sequence: NEEEGNSEEIKAK, peptide start residue: 304) (UniProt O75844)",-0.794
18,"UniProt O75912 (peptide sequence: GMEQENKGR, peptide start residue: 354)",-0.0272
